The values are deposited in ChEMBL (CHEMBL3988442, “University of Dundee, Small-Polar-MMV Screening Library” (2021)).

Amino acid sequences for entries named in this document (tags omitted). Residues count along the entry.
UniProt A4I591, 1-473: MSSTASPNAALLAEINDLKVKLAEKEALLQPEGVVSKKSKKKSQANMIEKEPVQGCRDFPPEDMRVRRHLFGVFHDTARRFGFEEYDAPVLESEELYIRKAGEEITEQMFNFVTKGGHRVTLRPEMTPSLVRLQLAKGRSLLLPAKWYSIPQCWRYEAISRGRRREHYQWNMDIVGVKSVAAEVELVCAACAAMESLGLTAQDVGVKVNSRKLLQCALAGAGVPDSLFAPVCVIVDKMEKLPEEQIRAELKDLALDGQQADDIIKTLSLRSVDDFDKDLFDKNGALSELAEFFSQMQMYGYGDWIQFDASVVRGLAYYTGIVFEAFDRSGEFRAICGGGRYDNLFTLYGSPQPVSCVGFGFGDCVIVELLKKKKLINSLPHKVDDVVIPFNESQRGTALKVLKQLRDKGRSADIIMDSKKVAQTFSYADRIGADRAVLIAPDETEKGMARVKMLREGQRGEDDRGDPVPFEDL

LiHisRS: 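Histidine-tRNA ligase, Leishmania infantum (UniProt A4I591). Enzyme assay of histidyl-tRNA synthetase; the read-out is not stated. Concentration: 30 µM. The record gives no direction; compounds that gave an IC50 in retests scored well above the rest, so higher reads as stronger inhibition. The assay is labelled LdHisRS but filed under L. infantum. About 69,000 compounds were tested under these conditions; 0.6% (about 410) showed 50% or more at least once.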
Toxoplasma: 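Assay of Toxoplasma gondii numbers, read through their beta-galactosidase reporter with a colour substrate. Tested at 10 µM. Higher reads as fewer parasites (inferred from which compounds were picked for retests). Size under these conditions: about 67,000 compounds, about 260 of them at 50% or above in at least one test.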

Results are given as percent effect.
How 0% and 100% were set is not recorded. Most values in the screen are low, and negative values occur.
Compounds were drawn at random from those tested, without regard to their results.

{"compound": "CCc1nccn1-c1cncc(C2CCCN2Cc2ccc(F)cc2)n1", "stereo": "stereo not drawn", "LiHisRS": 0, "Toxoplasma": -38.62}
{"compound": "Cn1cc(C2CCCN2C(=O)CCCc2ccccn2)cn1", "stereo": "stereo not drawn", "LiHisRS": 3.636, "Toxoplasma": 0.4786}
{"compound": "COc1cccc(S(=O)(=O)Cc2noc(CC(C)C)n2)c1", "LiHisRS": 0, "Toxoplasma": -5.128}
{"compound": "c1ccc2sc(N3CCCC4(CCOC4)C3)nc2c1", "stereo": "stereo not drawn", "LiHisRS": 0, "Toxoplasma": 2.879}
{"compound": "O=C(C1CCOCC1)N1C[C@H]2CC[C@@H]1CN(Cc1ccncc1)C2", "LiHisRS": 15.56}
{"compound": "O=C(O)C(F)(F)F.[H][C@@]12CN(c3cccnc3)CC[C@]1([H])CN(c1cccc(F)c1)C2", "Toxoplasma": -4.489}
{"compound": "CC(C)N1CCOC(CC(=O)N2CCCN(c3ccc(F)cc3)CC2)C1", "stereo": "stereo not drawn", "LiHisRS": 8.392, "Toxoplasma": 3.476}
{"compound": "CCn1cc(CN2CCCN(C(=O)c3ccccc3OC)CC2)cn1", "LiHisRS": 15.04, "Toxoplasma": 1.883}
{"compound": "Cc1occc1C(=O)N1Cc2nccn2CC(CN(C)C)C1", "stereo": "stereo not drawn", "LiHisRS": -1}
{"compound": "COc1ncccc1C(=O)NC1(c2cccc(F)c2)CCOCC1", "LiHisRS": 22.58, "Toxoplasma": -0.7646}
{"compound": "CCNC(=O)[C@@H]1C[C@@H](N)CN1C(=O)CCc1ccc(C)c(C)c1", "LiHisRS": 2.083, "Toxoplasma": 3.585}
{"compound": "CCN1CC(COC(C)(C)C)Oc2ccncc2S1(=O)=O", "stereo": "stereo not drawn", "LiHisRS": 14.43, "Toxoplasma": 4.538}
{"compound": "CC1c2ncc(Cn3cncn3)n2CCN1C(=O)Cc1cccs1", "stereo": "stereo not drawn", "LiHisRS": 18, "Toxoplasma": -1.733}
{"compound": "CCN(C)CCNC(=O)Cc1nc(-c2ccco2)oc1C", "LiHisRS": -30.65}
{"compound": "CC(C)S(=O)(=O)CC(=O)NCC(Cc1ccc(F)cc1)C(N)=O", "stereo": "stereo not drawn", "LiHisRS": 6.742, "Toxoplasma": 5.057}
{"compound": "Cn1c(Cn2ccnc2)nnc1C1CCN(C(=O)C2(C)CC2)CC1", "LiHisRS": 11.43, "Toxoplasma": -7.517}
{"compound": "CCc1cc(CN(C)Cc2nc(-c3sccc3C)oc2C)on1", "LiHisRS": 5.208, "Toxoplasma": 0.1655}
{"compound": "Cc1nc(C(=O)N2CC[C@@]3(C[C@H](NS(C)(=O)=O)CCO3)C2)cs1", "LiHisRS": 16, "Toxoplasma": 10.85}
{"compound": "[H][C@]12CC[C@]([H])(CN(Cc3cscn3)C1)N(Cc1cc(CC(C)C)[nH]n1)C2", "Toxoplasma": -45.36}
{"compound": "COCCNC(=O)c1ccc(C)c(-n2cccc2)c1", "LiHisRS": 14.29, "Toxoplasma": -0.4525}
{"compound": "CN1CCc2nnc(C3CCCN3S(=O)(=O)c3ccc(F)cc3)n2CC1", "stereo": "stereo not drawn", "LiHisRS": 9.396, "Toxoplasma": 7.145}
{"compound": "CCCn1ncc(C2CC(=O)NCc3nc4sc(C)cn4c32)c1C", "stereo": "stereo not drawn", "LiHisRS": 20.51, "Toxoplasma": -4.085}
{"compound": "Cc1cnn(CC2CN(Cc3ccccn3)CCO2)c1", "stereo": "stereo not drawn", "LiHisRS": 0.8696, "Toxoplasma": 10.54}
{"compound": "COc1ccc(N2CCN(C(=O)OC(C)(C)C)C(C(=O)O)C2)cc1", "stereo": "stereo not drawn", "LiHisRS": 7.042}
{"compound": "O=C(Oc1ccccc1)N1CCC(CNS(=O)(=O)c2cccnc2)CC1", "LiHisRS": -1.695, "Toxoplasma": -6.649}
{"compound": "CN1C(=O)C2(CCN(C(=O)c3ccccc3)CC2)c2cccc(F)c21.Cl", "Toxoplasma": -2.205}
{"compound": "C[C@H](N)C(=O)N1CCC(c2[nH]ncc2-c2ccccc2)CC1", "LiHisRS": 12.94, "Toxoplasma": -1.273}
{"compound": "O=C(Nc1c(N2CCCC2)cccc1N1CCCC1)c1cnccn1", "LiHisRS": 30.77, "Toxoplasma": -8.279}
{"compound": "COc1ccc(-c2nccn2CC(O)CN2CCCC2)c(F)c1", "stereo": "stereo not drawn", "LiHisRS": 17.74, "Toxoplasma": 0.4263}
{"compound": "CCCOc1ccc(OCCN2CCOCS2(=O)=O)cc1", "LiHisRS": 6.452, "Toxoplasma": -7.613}
{"compound": "CC1CCc2n[nH]c(C(=O)NCCc3ccco3)c2C1", "stereo": "stereo not drawn", "LiHisRS": 10.96, "Toxoplasma": 19.63}
{"compound": "CCS(=O)(=O)N1CCCC2(COCCN(c3nncs3)C2)C1", "stereo": "stereo not drawn", "LiHisRS": 13.16, "Toxoplasma": 6.299}
{"compound": "CCCc1cc(C(=O)N2CCC3(CCCN(CCO)C3=O)C2)cs1", "stereo": "stereo not drawn", "LiHisRS": -1.754, "Toxoplasma": 2.141}
{"compound": "CN(C(=O)CCNC(=O)C1COc2ccccc21)c1ccccc1", "stereo": "stereo not drawn", "LiHisRS": 12.9, "Toxoplasma": -3.772}
{"compound": "C=C(C)COc1cccc(C(=O)N(CC)Cc2noc(C)n2)c1", "LiHisRS": 17.6, "Toxoplasma": 1.825}
{"compound": "[H][C@@]12CN(c3ccc(C)nn3)C[C@@H](C(=O)NC3CCC3)[C@]1([H])CCO2", "Toxoplasma": -9.101}
{"compound": "Cn1nccc1C(=O)NCCN1CCC(O)(c2ccc(F)cc2)CC1", "LiHisRS": 5.634, "Toxoplasma": 20.13}
{"compound": "N#Cc1ccc(NCCCN2C(=O)COc3ccccc32)nc1", "LiHisRS": 12.07, "Toxoplasma": 2.564}
{"compound": "CN1CCOCC2(CCCN(C(=O)c3ccccc3F)C2)C1", "stereo": "stereo not drawn", "LiHisRS": 2.752}
{"compound": "Cc1nccc(-c2cccc(NCC(=O)N3CCOCC3)c2)n1", "LiHisRS": 18.42, "Toxoplasma": -11.45}
{"compound": "O=C(O)C(F)(F)F.O=C(O)C(F)(F)F.[H][C@@]12CCCO[C@]1([H])[C@H](N(C)Cc1ccco1)CN(Cc1ccc(F)cc1)C2", "Toxoplasma": -19.54}
{"compound": "Cn1nccc1CNC(=O)Nc1cc(C(F)(F)F)c[nH]c1=O", "LiHisRS": -32.8, "Toxoplasma": -23.85}
{"compound": "CC(C)c1nc2n(n1)CC(NCc1nnc(C3CC3)o1)CC2", "stereo": "stereo not drawn", "LiHisRS": 7.895, "Toxoplasma": 10.29}
{"compound": "CSCc1ccc(C(=O)NCCCNc2ccc(C(F)(F)F)cn2)cc1", "LiHisRS": 20.18, "Toxoplasma": -10.13}
{"compound": "CC(C)NC(=O)c1ccc2c(c1)C(c1nc[nH]n1)CN2C", "stereo": "stereo not drawn", "LiHisRS": 9.091, "Toxoplasma": -6.198}

Once more, the final 5:

* O=C(O)C(F)(F)F.O=C(O)C(F)(F)F.[H][C@@]12CCCO[C@]1([H])[C@H](N(C)Cc1ccco1)CN(Cc1ccc(F)cc1)C2 | Toxoplasma: -19.54%
* Cn1nccc1CNC(=O)Nc1cc(C(F)(F)F)c[nH]c1=O | LiHisRS: -32.8%; Toxoplasma: -23.85%
* CC(C)c1nc2n(n1)CC(NCc1nnc(C3CC3)o1)CC2 (stereo not drawn) | LiHisRS: 7.895%; Toxoplasma: 10.29%
* CSCc1ccc(C(=O)NCCCNc2ccc(C(F)(F)F)cn2)cc1 | LiHisRS: 20.18%; Toxoplasma: -10.13%
* CC(C)NC(=O)c1ccc2c(c1)C(c1nc[nH]n1)CN2C (stereo not drawn) | LiHisRS: 9.091%; Toxoplasma: -6.198%